Measurements reported in US20240109937A1, “BINDING PEPTIDES AND USES THEREOF” (The Johns Hopkins University, priority 2021, published 2024).
No constants are given. Whether binding was seen depends on the method and setting. Some results given as binding are weak or reduced against the parent protein; the word gives no strength.

Amino acid sequences for entries named in this document (tags omitted). A change or cut given only in a name is not applied to a line headed by its entry. Residues count along the entry.
UniProt Q9Z0X1: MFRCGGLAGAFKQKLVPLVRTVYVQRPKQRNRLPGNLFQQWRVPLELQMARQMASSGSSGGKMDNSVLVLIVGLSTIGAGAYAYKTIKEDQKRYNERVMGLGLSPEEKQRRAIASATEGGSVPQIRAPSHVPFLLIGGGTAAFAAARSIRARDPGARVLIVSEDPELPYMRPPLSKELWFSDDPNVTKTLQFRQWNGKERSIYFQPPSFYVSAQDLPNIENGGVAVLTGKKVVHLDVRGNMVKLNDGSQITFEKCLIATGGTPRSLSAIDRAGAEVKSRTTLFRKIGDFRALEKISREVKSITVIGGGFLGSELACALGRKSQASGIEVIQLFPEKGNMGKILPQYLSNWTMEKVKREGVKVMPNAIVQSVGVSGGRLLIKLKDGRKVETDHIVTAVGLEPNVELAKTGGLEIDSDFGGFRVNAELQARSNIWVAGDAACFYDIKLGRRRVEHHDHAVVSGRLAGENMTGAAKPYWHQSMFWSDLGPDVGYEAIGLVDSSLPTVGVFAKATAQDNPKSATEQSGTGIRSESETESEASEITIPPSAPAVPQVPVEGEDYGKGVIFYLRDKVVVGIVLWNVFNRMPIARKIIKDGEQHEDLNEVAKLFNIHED
Mature apoptosis-inducing factor (mAIF, 62 kDa), endogenous mouse: residues 54-612 of Q9Z0X1
Truncated apoptosis-inducing factor (tAIF, 57 kDa), endogenous mouse: residues 103-612 of Q9Z0X1
UniProt P17742, residues 2-164: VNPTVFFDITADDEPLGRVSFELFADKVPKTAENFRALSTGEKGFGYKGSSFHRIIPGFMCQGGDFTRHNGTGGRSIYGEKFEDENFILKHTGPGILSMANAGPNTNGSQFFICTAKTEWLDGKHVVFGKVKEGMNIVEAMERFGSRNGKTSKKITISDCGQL

Experiments:
[1] = target: Truncated apoptosis-inducing factor (tAIF, 57 kDa), endogenous mouse (mouse) (UniProt Q9Z0X1); assay: immunoblots of ISO/Ca2+-treated ES-CM lysates (co-migration)
[2] = target: Truncated apoptosis-inducing factor (tAIF, 57 kDa), endogenous mouse (mouse) (UniProt Q9Z0X1); assay: immunoblots of myocardial lysates on non-denaturing gels (co-migration)
[3] = target: Mature apoptosis-inducing factor (mAIF, 62 kDa), endogenous mouse (mouse) (UniProt Q9Z0X1); assay: immunoblots of ISO/Ca2+-treated ES-CM lysates on non-denaturing gels (co-migration)
[4] = target: Truncated apoptosis-inducing factor (tAIF, 57 kDa), endogenous mouse (mouse) (UniProt Q9Z0X1); assay: as above
[5] = target: Truncated apoptosis-inducing factor (tAIF, 57 kDa), endogenous mouse (mouse) (UniProt Q9Z0X1); assay: immunoblots of myocardial lysates on non-denaturing gels (co-migration, 'bound-PPIA')

Measured: binding

Cyclophilin-A (peptidyl-prolyl cis-trans isomerase, PPIA), endogenous in mouse myocardium and mouse ES-CMs (from UniProt P17742 2-164) (enzyme)
binds: all assays above
